Data reported in patent US12570606B2, “Myeloperoxidase imaging agents” (The General Hospital Corporation, priority 2016, dated 2026).
For at least one compound, name, drawing or mass did not settle the structure.

Target: T1, MPO (Homo sapiens, UniProt P05164)
T1 sequence (P05164 49-745): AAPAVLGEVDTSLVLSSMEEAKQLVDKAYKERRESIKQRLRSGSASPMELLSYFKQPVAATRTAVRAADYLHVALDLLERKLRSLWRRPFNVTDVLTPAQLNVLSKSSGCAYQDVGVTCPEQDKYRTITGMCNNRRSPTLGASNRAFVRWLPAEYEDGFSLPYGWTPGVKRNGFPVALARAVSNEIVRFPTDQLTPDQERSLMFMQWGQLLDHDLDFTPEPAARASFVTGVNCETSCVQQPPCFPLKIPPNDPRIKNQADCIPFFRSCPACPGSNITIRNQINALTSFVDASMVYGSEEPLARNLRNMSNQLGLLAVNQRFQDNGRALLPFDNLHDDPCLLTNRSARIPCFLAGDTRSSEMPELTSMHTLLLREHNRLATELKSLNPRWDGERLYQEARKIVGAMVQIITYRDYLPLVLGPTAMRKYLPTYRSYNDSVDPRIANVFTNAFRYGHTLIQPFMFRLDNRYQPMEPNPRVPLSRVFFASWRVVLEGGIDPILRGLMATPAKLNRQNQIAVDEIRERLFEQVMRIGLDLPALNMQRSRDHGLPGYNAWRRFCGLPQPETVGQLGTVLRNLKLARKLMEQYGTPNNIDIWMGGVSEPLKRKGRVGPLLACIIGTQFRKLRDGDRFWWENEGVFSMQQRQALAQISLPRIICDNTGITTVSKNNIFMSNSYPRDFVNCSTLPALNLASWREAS
Test: Fluorescence reflectance imaging (FRI) of GOX/MPO/ABAH in matrigel, specificity
Assay type: in vivo, mouse
Settings: 2 nmol i.v. then SA-647
Description: Four to ten weeks old female C57BL/6J or MPO-knockout mice (from Jackson Laboratories, Bar Harbor, Me.) were used for all animal experiments. Mice were fed biotin free diet for 5 days before imaging with fluorescence molecular tomography (FMT) or fluorescence […] imaging (FRI).

O=C(CCCC[C@@H]1SC[C@@H]2NC(=O)N[C@@H]21)N[C@@H](Cc1c[nH]c2ccccc12)C(=O)NCCc1c[nH]c2ccccc12 [Compound 18, N—((S)-1-((2-(1H-indol-3-yl)ethyl)amino)-3-(1H-indol-3-yl)-1-oxopropan-2-yl)-5-((3aS,4S,6aR)-2-oxohexahydro-1H-thieno[3,4-d]imidazol-4-yl)pentanamide]
FRI fluorescence signal with MPO and GOX in matrigel: insensitive to both GOX and MPO
